Experimental findings from article PMC8486766 are described below.

The test concerns the target FLAG-tagged full-length (FL) MeCP2 (human) (UniProt P51608). Description: co-IP; FLAG M2 agarose, HMW extract (Benzonase-treated) of HEK293T cells expressing FLAG-MeCP2, 4 °C 3 h, washes with 300 mM NaCl and 0.1% NP-40; western blot. In general terms: A western blot detects proteins with antibodies after separation by electrophoresis.

These are yes or no findings as the source states them, for the method shown. In cells and extracts the contact can be indirect.

On to hnRNP K (from UniProt P61978 1-463), for which the binding result is “no binding”.
